Laboratory results: PubChem BioAssay AID330 (DTP/NCI, 2004)
The list is a part of this screen's results and no random one: it gathers tests that were run many times, whatever their T/C, doses with no T/C, and many T/C values between a quarter and a half above the control. Other doses and runs of a compound stand elsewhere. T/C: endpoint of the treated group in % of that of the vehicle group. Some entries give survivors of the animals treated and no T/C: the source files T/C as zero there, which appears to mark a toxic dose or a test without result, not a measured value. Some doses without a T/C left all or most animals alive at the check, yet need not have been tolerated: survival well below the control is almost never listed, so the zero probably covers shortened survival too. Survivors were counted at the toxicity check, usually on the fifth day, unless a day is given; later deaths do not show. Schedules are NCI's codes, read here as Q, the interval in days (D) or hours (H), X, the number of doses. Marks such as (2×) give the number of equal values in this list. Some doses were run more than once; their values stand side by side, smallest first. Where survival is the endpoint, the PubChem record calls one and a half times the control and up active, and a quarter to a half above the control has no call in these data; cut-offs in other NCI protocols can differ. Some T/C values are followed by the survivors on the day toxicity was checked, most often the fifth; without a count, all were alive then.

Test system: P388 leukemia ip, CD2F1 mice, survival T/C
Experiment: NCI In Vivo Anticancer Drug Screen. Data for tumor model P388 Leukemia (intraperitoneal) in CD2F1 (CDF1) mice
Conditions: T/C endpoint: median survival time, higher T/C = longer survival
[1] = dose: 16.0 mg/kg/injection, schedule: Q01DX009 (ip), vehicle: Klucel (hydroxypropylcellulose) (HPC)

O=NN(CCCl)C(=O)NCCCl
T/C (dose: 16.0 mg/kg/injection, schedule: Q01DX001 (ip), vehicle: saline + alcohol, evaluated on day 30): 162 and 180 % of control | T/C [1]: 103, 110, 140 % of control | survivor count [1]: 6 of 6 | T/C (dose: 16.0 mg/kg/injection, schedule: Q01DX009 (ip), vehicle: saline + alcohol, evaluated on day 30): 89, 94, 96, 104, 109 % of control | T/C (dose: 16.0 mg/kg/injection, schedule: Q01DX009 (ip), vehicle: saline + alcohol, evaluated on day 35): 121 % of control | T/C (dose: 16.0 mg/kg/injection, schedule: Q01DX009 (ip), vehicle: saline + alcohol, evaluated on day 45): 96 % of control | T/C (dose: 16.0 mg/kg/injection, schedule: Q01DX009 (ip), vehicle: saline, evaluated on day 30): 86, 87, 99 (2×), 106, 122, 128, 133, 135, 138, 139, 172 % of control | T/C (dose: 16.0 mg/kg/injection, schedule: Q01DX009 (ip), vehicle: saline, evaluated on day 60): 109, 113, 118, 135 % of control | T/C (dose: 20.0 mg/kg/injection, schedule: Q01DX001 (ip), vehicle: saline + alcohol, evaluated on day 8): 185 % of control | T/C (dose: 20.0 mg/kg/injection, schedule: Q01DX001 (ip), vehicle: saline + alcohol, evaluated on day 30): 130, 149, 166, 182, 183, 184, 186, 188, 190, 194 (2×), 197, 198, 200, 202, 203 (2×), 205 (2×), 211, 212, 216, 247, 257, 263, 300 (2×), 309 % of control | T/C (dose: 20.0 mg/kg/injection, schedule: Q01DX001 (ip), vehicle: saline + alcohol, evaluated on day 35): 260 % of control | T/C (dose: 20.0 mg/kg/injection, schedule: Q01DX001 (ip), vehicle: saline + alcohol, evaluated on day 44): 207 and 216 % of control | T/C (dose: 20.0 mg/kg/injection, schedule: Q01DX001 (ip), vehicle: saline + alcohol, evaluated on day 45): 228 and 405 % of control | T/C (dose: 20.0 mg/kg/injection, schedule: Q01DX001 (ip), vehicle: saline + alcohol, evaluated on day 60): 174, 187 [5 of 6 alive], 235, 252, 566 % of control (2×) | T/C (dose: 30.0 mg/kg/injection, schedule: Q01DX001 (ip), vehicle: saline + alcohol, evaluated on day 44): 241 and 250 % of control | T/C (dose: 30.0 mg/kg/injection, schedule: Q01DX001 (ip), vehicle: saline + alcohol, evaluated on day 45): 394 and 405 % of control | T/C (dose: 30.0 mg/kg/injection, schedule: Q01DX001 (ip), vehicle: saline + alcohol, evaluated on day 60): 566 (2×), 576, 606 % of control | survivor count (dose: 30.0 mg/kg/injection, schedule: Q01DX005 (ip), vehicle: Klucel (hydroxypropylcellulose) (HPC)): 6 of 6 | T/C (dose: 30.0 mg/kg/injection, schedule: Q01DX005 (ip), vehicle: saline + alcohol, evaluated on day 30): 88 (2×), 89, 93, 97, 107, 108, 109, 110, 111, 113, 133, 152, 223, 300 % of control | T/C (dose: 30.0 mg/kg/injection, schedule: Q01DX005 (ip), vehicle: saline + alcohol, evaluated on day 35): 90 % of control | T/C (dose: 30.0 mg/kg/injection, schedule: Q01DX005 (ip), vehicle: saline + alcohol, evaluated on day 60): 94 % of control | survivor count (dose: 30.0 mg/kg/injection, schedule: Q01DX005 (ip), vehicle: saline + alcohol): 6 of 6 (2×) | survivor count (dose: 30.0 mg/kg/injection, schedule: Q01DX009 (ip), vehicle: Klucel (hydroxypropylcellulose) (HPC)): 6 of 6 | T/C (dose: 30.0 mg/kg/injection, schedule: Q01DX009 (ip), vehicle: saline + alcohol, evaluated on day 30): 87, 88, 93, 97, 99, 100 (2×), 100 [5 of 6 alive], 104, 105, 107, 113 % of control | T/C (dose: 30.0 mg/kg/injection, schedule: Q01DX009 (ip), vehicle: saline + alcohol, evaluated on day 35): 87 % of control | survivor count (dose: 30.0 mg/kg/injection, schedule: Q01DX009 (ip), vehicle: saline + alcohol): 6 of 6 (2×) | T/C (dose: 32.0 mg/kg/injection, schedule: Q01DX001 (ip), vehicle: saline + alcohol, evaluated on day 9): 189 and 275 % of control | T/C (dose: 32.0 mg/kg/injection, schedule: Q01DX001 (ip), vehicle: saline + alcohol, evaluated on day 30): 198 and 209 % of control | survivor count (dose: 32.0 mg/kg/injection, schedule: Q01DX009 (ip), vehicle: saline with Tween-80): 10 of 10 | T/C (dose: 40.0 mg/kg/injection, schedule: Q01DX001 (ip), vehicle: saline + alcohol, evaluated on day 8): 284 % of control | T/C (dose: 40.0 mg/kg/injection, schedule: Q01DX001 (ip), vehicle: saline + alcohol, evaluated on day 30): 95, 208, 217, 226, 235, 247, 250 (2×), 254, 259, 265 (3×), 277, 285, 287, 294 (3×), 297 (3×), 300 (4×), 303, 309 % of control | T/C (dose: 40.0 mg/kg/injection, schedule: Q01DX001 (ip), vehicle: saline + alcohol, evaluated on day 35): 350 % of control | T/C (dose: 40.0 mg/kg/injection, schedule: Q01DX001 (ip), vehicle: saline + alcohol, evaluated on day 44): 110 and 198 % of control | T/C (dose: 40.0 mg/kg/injection, schedule: Q01DX001 (ip), vehicle: saline + alcohol, evaluated on day 45): 394 % of control | T/C (dose: 40.0 mg/kg/injection, schedule: Q01DX001 (ip), vehicle: saline + alcohol, evaluated on day 60): 256, 576, 582 % of control | survivor count (dose: 40.0 mg/kg/injection, schedule: Q04DX003 (ip), vehicle: saline + alcohol): 5 of 6 | survivor count (dose: 40.0 mg/kg/injection, schedule: Q04DX003 (iv), vehicle: saline + alcohol): 6 of 6 | survivor count (dose: 50.0 mg/kg/injection, schedule: Q01DX005 (ip), vehicle: saline with Tween-80): 6 of 6 | survivor count (dose: 60.0 mg/kg/injection, schedule: Q01DX001 (iv), vehicle: saline + alcohol): 3 of 6 | T/C (dose: 64.0 mg/kg/injection, schedule: Q01DX001 (ip), vehicle: Klucel (hydroxypropylcellulose) (HPC)): 132 % of control | T/C (dose: 64.0 mg/kg/injection, schedule: Q01DX001 (ip), vehicle: saline + alcohol, evaluated on day 9): 92 and 112 % of control | T/C (dose: 64.0 mg/kg/injection, schedule: Q01DX001 (ip), vehicle: saline + alcohol, evaluated on day 30): 207 % of control | survivor count (dose: 64.0 mg/kg/injection, schedule: Q01DX001 (ip), vehicle: saline + alcohol): 6 of 6 | survivor count (dose: 64.0 mg/kg/injection, schedule: Q01DX001 (ip), vehicle: water): 6 of 6 | survivor count (dose: 64.0 mg/kg/injection, schedule: Q01DX009 (ip), vehicle: saline with Tween-80): 8 of 10 | T/C (dose: 80.0 mg/kg/injection, schedule: Q01DX001 (ip), vehicle: saline + alcohol, evaluated on day 8): 99 % of control | T/C (dose: 80.0 mg/kg/injection, schedule: Q01DX001 (ip), vehicle: saline + alcohol, evaluated on day 30): 88 (3×), 90, 94, 99, 100, 103, 104, 140, 171, 285, 294, 300 % of control | survivor count (dose: 80.0 mg/kg/injection, schedule: Q01DX001 (ip), vehicle: saline + alcohol): 5 of 6 (2×) and 6 of 6 (2×) | survivor count (dose: 100.0 mg/kg/injection, schedule: Q01DX005 (ip), vehicle: saline with Tween-80): 0 of 6 and 4 of 6 | survivor count (dose: 125.0 mg/kg/injection, schedule: Q01DX001 (ip), vehicle: saline with Tween-80): 1 of 6 and 6 of 6 | survivor count (dose: 128.0 mg/kg/injection, schedule: Q01DX001 (ip), vehicle: saline with Tween-80): 2 of 2 | survivor count (dose: 128.0 mg/kg/injection, schedule: Q01DX001 (oral), vehicle: saline with Tween-80): 5 of 6 | survivor count (dose: 200.0 mg/kg/injection, schedule: Q01DX005 (ip), vehicle: saline with Tween-80): 0 of 6 | survivor count (dose: 250.0 mg/kg/injection, schedule: Q01DX001 (ip), vehicle: saline with Tween-80): 0 of 6 | survivor count (dose: 256.0 mg/kg/injection, schedule: Q01DX001 (oral), vehicle: saline with Tween-80): 0 of 6 | survivor count (dose: 400.0 mg/kg/injection, schedule: Q01DX005 (ip), vehicle: saline with Tween-80): 0 of 6 | survivor count (dose: 500.0 mg/kg/injection, schedule: Q01DX001 (ip), vehicle: saline with Tween-80): 0 of 6 | survivor count (dose: 1000.0 mg/kg/injection, schedule: Q01DX001 (ip), vehicle: saline with Tween-80): 0 of 6 | survivor count (dose: 2000.0 mg/kg/injection, schedule: Q01DX001 (ip), vehicle: saline with Tween-80): 0 of 6
